Experimental data reported in PMC11840738.
Results are given in words; binding and its absence hold for the method and conditions named. In cells and extracts the contact can be indirect. Some binding calls cover weakened binding; strength is not graded here.

Chains of the proteins cited; added tags and fusions are not shown.
UniProt Q9H0A0: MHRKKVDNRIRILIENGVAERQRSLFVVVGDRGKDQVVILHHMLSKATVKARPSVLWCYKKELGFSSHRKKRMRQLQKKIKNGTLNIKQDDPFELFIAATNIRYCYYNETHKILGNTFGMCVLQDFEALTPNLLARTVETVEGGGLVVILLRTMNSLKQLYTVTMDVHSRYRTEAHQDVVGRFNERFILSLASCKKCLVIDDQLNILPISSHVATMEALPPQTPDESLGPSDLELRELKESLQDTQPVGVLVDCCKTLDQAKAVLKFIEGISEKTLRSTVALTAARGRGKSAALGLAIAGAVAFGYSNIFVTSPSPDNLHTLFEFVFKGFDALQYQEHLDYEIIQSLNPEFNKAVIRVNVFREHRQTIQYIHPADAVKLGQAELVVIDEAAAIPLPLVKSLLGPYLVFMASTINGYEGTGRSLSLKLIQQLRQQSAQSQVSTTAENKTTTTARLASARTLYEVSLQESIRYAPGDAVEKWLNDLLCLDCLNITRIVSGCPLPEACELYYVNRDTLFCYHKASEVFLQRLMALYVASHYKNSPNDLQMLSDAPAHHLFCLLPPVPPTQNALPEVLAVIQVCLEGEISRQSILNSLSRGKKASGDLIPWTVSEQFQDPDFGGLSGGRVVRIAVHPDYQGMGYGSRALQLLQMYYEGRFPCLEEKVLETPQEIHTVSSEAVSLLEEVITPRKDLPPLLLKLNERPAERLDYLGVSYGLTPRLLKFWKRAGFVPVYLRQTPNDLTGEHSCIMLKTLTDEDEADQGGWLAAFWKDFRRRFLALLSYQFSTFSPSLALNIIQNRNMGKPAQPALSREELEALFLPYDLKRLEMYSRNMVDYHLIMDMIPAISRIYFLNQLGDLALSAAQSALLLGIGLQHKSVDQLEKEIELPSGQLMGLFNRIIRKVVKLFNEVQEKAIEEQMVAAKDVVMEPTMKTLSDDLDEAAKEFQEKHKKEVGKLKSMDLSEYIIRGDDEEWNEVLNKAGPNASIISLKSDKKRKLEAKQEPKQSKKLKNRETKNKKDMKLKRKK

Biological target: NAT10 (N-acetyltransferase 10) in BGC823 and MGC803 cell lysates (human (in BGC823 and MGC803 cells)) (UniProt Q9H0A0)
Experiment: co-IP; lysates of BGC823 and MGC803 cells cultured in 25 mM glucose medium or glucose-free medium containing leupeptin (10 uM) for 6 or 12 h; lysate incubated with the indicated antibodies overnight at 4 °C, Protein A+G beads, Western blot

| binding | Substance |
| --- | --- |
| binds | sequestosome 1 (SQSTM1)/p62 (from UniProt Q13501 1-440) |
| binds | microtubule-associated protein 1 light chain 3 alpha (LC3) (from UniProt Q9H492 1-121) |
